The source of these data is the supplement of paper PMC4635364.

Counter-ions that a name gives are not always drawn. The list shows a part of the results. Single values are uncertain here, since repeats match poorly.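 Cells: ReNCell VM human fetal ventral-midbrain neural progenitors, differentiated mitogen-free. Blinded raters compared doublecortin-stained (early neurons) or tyrosine hydroxylase-stained (dopaminergic neurons) images with untreated wells, where 0 means no change. After repeats and both raters were averaged, compounds scoring 2 or above became hits for retesting.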

The test system of test [1] is ReNCell VM. Nature of the test: neuronal differentiation score (DCX+ cell fraction vs untreated, manual image score) (score (-3 to 3)); higher = more neuronal differentiation. The note with it: 2 uM, 2 weeks.
Test [2] deals with ReNCell VM. Nature of the test: dopaminergic neuron differentiation score (TH+ cell fraction vs untreated, manual image score) (score (0 to 3)); higher = more TH+ dopaminergic neuron differentiation. The note with it: 2 uM, 4 weeks, BDNF 10 ng/ml + GDNF 10 ng/ml.

As to `CCCOC(=O)c1c(-c2ccccc2)nc(CC)c(C(=O)SCC)c1CCC`, the neuronal differentiation score in the test with ReNCell VM [1] (library: LOPAC) was inactive: 0. For the same compound, in the test with ReNCell VM [2] (library: LOPAC), the “dopaminergic neuron differentiation score” value is inactive: 0.
`CN(C(=O)c1c(O)c2ccccc2n(C)c1=O)c1ccccc1` [Linomide]: the neuronal differentiation score in the test with ReNCell VM [1] (library: Tocriscreen) was inactive: 0. Besides, the “dopaminergic neuron differentiation score” value in the test on ReNCell VM [2] (library: Tocriscreen) was inactive: 0.
With `COc1c2ccoc2nc2c(OC)c(OCC(O)C(C)(C)O)ccc12` (centres undefined) [Evoxine], the neuronal differentiation score in the test on ReNCell VM [1] (library: Phytochemical) was inactive: 0. Moreover, in the test on ReNCell VM [2] (library: Phytochemical), the “dopaminergic neuron differentiation score” value was inactive: 0.
With `COc1ccc2[nH]c(I)c(CCNC(C)=O)c2c1` [2-Iodomelatonin], the neuronal differentiation score in the test on ReNCell VM [1] (library: Tocriscreen) is inactive: 0. In the test on ReNCell VM [2] (library: Tocriscreen), the “dopaminergic neuron differentiation score” value was inactive: 0.
`COc1cc(-c2coc3cc(OCc4ccccc4)c(OC)c(O)c3c2=O)cc(OCc2ccccc2)c1OC`: the neuronal differentiation score in the test with ReNCell VM [1] (library: Spectrum) was inactive: 0. The “dopaminergic neuron differentiation score” value in the test on ReNCell VM [2] (library: Spectrum) was inactive: 0.
Take `C[C@H]1C(=O)CC[C@@H]2[C@]1(C)CC[C@H]1[C@@]2(C)CC[C@@]2(C)[C@@H]3CC(C)(C)CC[C@]3(C)CC[C@]12C`: the neuronal differentiation score in the test with ReNCell VM [1] (library: Spectrum) is inactive: 0. Besides, the “dopaminergic neuron differentiation score” value with ReNCell VM [2] (library: Spectrum) is inactive: 0.
With `CN1Cc2c(C(=O)OC(C)(C)C)ncn2-c2ccsc2C1=O`, in the test on ReNCell VM [1] (library: Tocriscreen), the neuronal differentiation score is inactive: 0. The “dopaminergic neuron differentiation score” value in the test on ReNCell VM [2] (library: Tocriscreen) is inactive: 0.
With `COc1c2[nH]c3occc3c(OC)c-2ccc1=O` [Haplopine], the neuronal differentiation score with ReNCell VM [1] (library: Phytochemical) was inactive: 0. In the test on ReNCell VM [2] (library: Phytochemical), the “dopaminergic neuron differentiation score” value was inactive: 0.
Take `c1cc(CN2CCCCC2)cc(OCCCNc2nc3ccccc3s2)c1`: the neuronal differentiation score in the test on ReNCell VM [1] (library: LOPAC) is active: 2. The “dopaminergic neuron differentiation score” value in the test on ReNCell VM [2] (library: LOPAC) is inactive: 0.
For the compound `O=C1O[C@H]([C@@H](O)CO)C(O)=C1O`, the neuronal differentiation score in the test on ReNCell VM [1] (library: Spectrum) is inactive: 0. Further, the “dopaminergic neuron differentiation score” value in the test on ReNCell VM [2] (library: Spectrum) is inactive: 0.
Consider `CC(C)C[C@@H]1NC(=O)[C@H](CCCN)NC(=O)[C@H](C(C)C)NC(=O)[C@H](Cc2ccc(O)cc2)N[C@@H](CCC(=O)O)C(=O)N[C@@H](CC(N)=O)C(=O)[C@@H](Cc2ccccc2)NC(=O)[C@H](Cc2ccccc2)NC(=O)[C@@H]2CCCN2C(=O)[C@@H](Cc2ccccc2)NC1=O`, for which the neuronal differentiation score in the test with ReNCell VM [1] (library: Spectrum) is inactive: 0. In addition, the “dopaminergic neuron differentiation score” value in the test with ReNCell VM [2] (library: Spectrum) is inactive: 0.
As for `CC[N+](CC)(CC)CC(=O)Nc1c(C)cccc1C` [QX 314 bromide], the neuronal differentiation score in the test with ReNCell VM [1] (library: Tocriscreen) is inactive: 0. Besides, the “dopaminergic neuron differentiation score” value with ReNCell VM [2] (library: Tocriscreen) is inactive: 0.
Regarding `CC[C@]1(O)C[C@H]2CN(CCc3c([nH]c4ccccc34)[C@@](C(=O)OC)(c3cc4c(cc3OC)N(C=O)[C@H]3[C@@](O)(C(=O)OC)[C@H](OC(C)=O)[C@]5(CC)C=CCN6CC[C@]43[C@@H]65)C2)C1`, the neuronal differentiation score with ReNCell VM [1] (library: Spectrum) was inactive: 0. For the same compound, in the test with ReNCell VM [2] (library: Spectrum), the “dopaminergic neuron differentiation score” value was inactive: 0.
Consider `OC[C@H]1O[C@H](O[C@]2(CCl)O[C@H](CCl)[C@@H](O)[C@@H]2O)[C@H](O)[C@@H](O)[C@H]1Cl`, for which the neuronal differentiation score with ReNCell VM [1] (library: Spectrum) is inactive: 1. Also, in the test on ReNCell VM [2] (library: Spectrum), the “dopaminergic neuron differentiation score” value was inactive: 0.
`COC(=O)[C@@H]1[C@H]2C[C@H]3c4[nH]c5ccccc5c4CCN3C[C@@H]2CC[C@@H]1O`: the neuronal differentiation score with ReNCell VM [1] (library: Spectrum) is inactive: -1. In addition, in the test with ReNCell VM [2] (library: Spectrum), the “dopaminergic neuron differentiation score” value is inactive: 0.
On to `COc1cc(/C=C/C(=O)CC(=O)/C=C/c2ccc(O)c(OC)c2)ccc1O` [Curcumin], for which, in the test on ReNCell VM [1] (library: Phytochemical), the neuronal differentiation score was inactive: 0. The “dopaminergic neuron differentiation score” value with ReNCell VM [2] (library: Phytochemical) was inactive: 0.
Consider `OC[C@H]1O[C@@H](n2cnc3c(Nc4ccccc4)ncnc32)[C@H](O)[C@@H]1O` [N6-Phenyladenosine], for which the neuronal differentiation score in the test on ReNCell VM [1] (library: LOPAC) was inactive: 0. Further, the “dopaminergic neuron differentiation score” value in the test on ReNCell VM [2] (library: LOPAC) was inactive: 0.
As to `CC(C)(Sc1cc(C(C)(C)C)c(O)c(C(C)(C)C)c1)Sc1cc(C(C)(C)C)c(O)c(C(C)(C)C)c1`, the neuronal differentiation score in the test with ReNCell VM [1] (library: Spectrum) was inactive: 0. The “dopaminergic neuron differentiation score” value with ReNCell VM [2] (library: Spectrum) is inactive: 0.
As to `C=C1CC[C@H](O)C/C1=C/C=C1\CCC[C@]2(C)[C@@H]([C@H](C)/C=C/[C@H](C)C(C)C)CC[C@@H]12` [Calciferol], the neuronal differentiation score in the test with ReNCell VM [1] (library: Phytochemical) is inactive: 0. Moreover, the “dopaminergic neuron differentiation score” value in the test on ReNCell VM [2] (library: Phytochemical) was inactive: 0.
Consider `CC1=C2C(/C=C(\C)C(=O)O)CCC(C)C2C(O)C1` (centres undefined) [valerenolic acid], for which the neuronal differentiation score in the test on ReNCell VM [1] (library: Natural) was inactive: 0. In the test on ReNCell VM [2] (library: Natural), the “dopaminergic neuron differentiation score” value was inactive: 0.
Regarding `CC(C)N1Cc2cc(S(C)(=O)=O)ccc2N(CCN2CC=C(c3c[nH]c4cc(F)ccc34)CC2)S1(=O)=O`, the neuronal differentiation score with ReNCell VM [1] (library: Tocriscreen) was inactive: 0. Also, the “dopaminergic neuron differentiation score” value with ReNCell VM [2] (library: Tocriscreen) was inactive: 0.
As for `COc1ccc2c3c([nH]c2c1)[C@H]1C[C@H]2[C@H](C[C@@H](O)[C@H](OC)[C@H]2C(=O)O)CN1CC3` [Reserpinic acid hydrochloride], in the test on ReNCell VM [1] (library: Phytochemical), the neuronal differentiation score is inactive: 0. Besides, in the test with ReNCell VM [2] (library: Phytochemical), the “dopaminergic neuron differentiation score” value was inactive: 0.
`CCCCCCOC(=O)NC(=N)c1ccc(NCc2nc3cc(C(=O)N(CCC(=O)OCC)c4ccccn4)ccc3n2C)cc1`: the neuronal differentiation score with ReNCell VM [1] (library: Spectrum) is inactive: 0. Moreover, in the test with ReNCell VM [2] (library: Spectrum), the “dopaminergic neuron differentiation score” value is inactive: 0.
As to `N#Cc1ccc2c(c1)N(CCCN1CCC(O)CC1)c1ccccc1S2`, the neuronal differentiation score with ReNCell VM [1] (library: Spectrum) is inactive: 0. Moreover, the “dopaminergic neuron differentiation score” value in the test with ReNCell VM [2] (library: Spectrum) is inactive: 0.
Regarding `COc1c(C=O)c(=O)[nH]c2c(OC)cccc12` [2-hydroxy-4,8-dimethoxy-quinoline-3-carbaldehyde], in the test with ReNCell VM [1] (library: Natural), the neuronal differentiation score was inactive: 0. Also, the “dopaminergic neuron differentiation score” value with ReNCell VM [2] (library: Natural) is inactive: 0.
For `CCC(Cc1c(I)cc(I)c(N)c1I)C(=O)O` (centres undefined) [Iopanoic acid], the neuronal differentiation score in the test with ReNCell VM [1] (library: Prestwick) is inactive: 0. Moreover, the “dopaminergic neuron differentiation score” value in the test on ReNCell VM [2] (library: Prestwick) is inactive: 0.
With `CC1(C)S[C@@H]2[C@H](NC(=O)[C@H](N)c3ccccc3)C(=O)N2[C@H]1C(=O)O` [Ampicillin trihydrate], the neuronal differentiation score with ReNCell VM [1] (library: Prestwick) was inactive: 0. The “dopaminergic neuron differentiation score” value in the test with ReNCell VM [2] (library: Prestwick) is inactive: 0.
